Experimental data published in US4550170A, “6-Phenyl-2,3,5,6-tetrahydroimidazo-[2,1-b]-thiazole derivatives” (Institut Organicheskoi Khimii Akademii Nauk Ukrainskoi SSR, priority 1984, dated 1985).
For at least one compound, name, drawing or mass did not settle the structure.

Experiments:
interferon in mice serum = type: in vivo, mice (line C57W); details: as compared to levamizole
[1] = tested on: virus of vesicular stomatitis; type: cell-based; details: ratio to levamizole

SMILES | interferon induction in vivo compared with levamizole (interferon in mice serum) | more active than levamizole in inhibition of reproduction of the virus of vesicular stomatitis [1]
NC(=O)C[N+]1=C2SCCN2CC1c1ccccc1 (stereo not drawn) [Compound (III), 2,3,5,6-tetrahydro-6-phenyl-7-carbamoylmethylimidazo-[2,1-b]-thiazolium bromide] | more active inductor of interferon in vivo | ten
CCCCCCCCCCOC(=O)C[N+]1=C2SCCN2CC1c1ccccc1 (stereo not drawn) [Compound (II), 2,3,5,6-tetrahydro-6-phenyl-7-decyloxycarbonylmethylimidazo-[2,1-b]-thiazolium bromide] | – | ten
